About 170 (0.05%) of roughly 340,000 compounds were called active. This list was built around the results that the source calls inconclusive (neither active nor inactive); the mix of calls is not that of the screen. Calls follow the shape of the dose curve; as a rule, active = well fitted inhibition curve with a large enough effect in the signal ratio, with a control signal flat (not every such curve was filed as active); inconclusive = small, poorly fitted or top-dose-only effect, or effect the other way, or a change in a side signal; inactive = flat fitted curve, though single readings scatter; the % refers to the signal ratio. Where the call is inconclusive, the potency comes from a doubtful curve fit.
Assay: qHTS Assay to Find Inhibitors of Chronic Active B-Cell Receptor Signaling;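 as to activity change, negative = inhibition: plate controls were basal doxycycline-induced cells for no effect and cells given 10 µM MG132 for full effect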
Conditions: ABC-DLBCL IkBa-CBG/CBR reporter, luminescence ratio (green luciferase fused to IkBa over red control in TMD8 lymphoma cells), 4 h; activity change, negative = inhibition: at 46.1 µM (top of the series)
Summary of the method: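 Concentration-response series (up to 46 uM) were applied to TMD8 dual-reporter cells for 4 h at 37C with doxycycline. Green/red ratio, after filter-overlap correction, defined %Activity; red signal alone was normalised to basal cells and zero luminescence.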
Potency is read from the fitted curve at half-maximal effect.

SMILES	Potency	activity change, negative = inhibition
COc1ccccc1NC(=O)C/C(C)=N/NC(=O)c1ccccn1	inconclusive: 25.1 µM [falling, partial curve]	–
CC(C)(C)OC(=O)N1CCC(NC(=O)c2nc[nH]c2C(=O)NCc2ccccc2)CC1	–	inactive
O=[N+]([O-])c1ccc(O)c(C=Nc2cccc3ccccc23)c1	inconclusive: 12.6 µM [falling, single point]	–
CCOCCCNC(=O)c1ccc(Cn2c(=S)[nH]c3c([nH]c4ccc(OC)cc43)c2=O)cc1	inconclusive: 2 µM [falling, partial curve]	–
N#Cc1c(-c2ccc(Cl)cc2)cc(-c2ccccc2)nc1SCC(=O)O	–	inactive
c1ccc(CN2CCN(c3nc4ccccc4s3)CC2)cc1	–	inconclusive: 6.23%
Cc1cccc(C)c1NC(=O)CSc1nnc(Cn2nnc(-c3ccccc3)n2)n1-c1ccccc1	–	inconclusive: -5.82%
O=C1NC2(CCC3(CC2)OCCO3)NN1c1ccccc1	–	inconclusive: 2.11%
COc1ccc(Nc2cccc(Cl)c2)c(C(=O)O)c1	inconclusive: 29.1 µM [falling, single point]	–
COc1ccc([N+](=O)[O-])cc1N(CC(O)CN1CCOCC1)S(=O)(=O)c1ccccc1 (configuration not stated)	–	inconclusive: -8.42%
O=c1cc2c(nn1Cc1ccccc1Cl)-c1ccccc1CC2	–	inactive
CCOc1ccc(-c2cn3ccccc3n2)cc1	inconclusive: 31.6 µM [falling, single point]	–
Cc1ccccc1C(=O)NNC(=O)C1CC(=O)N(Cc2ccccc2)C1 (configuration not stated)	inconclusive: 25.9 µM [falling, partial curve]	–
Nc1c(C(=O)Nc2ccc(Cl)c(C(=O)O)c2)sc2nc3c(cc12)CCCC3	inconclusive: 10 µM [falling, partial curve]	–
Cc1onc(-c2c(F)cccc2Cl)c1C(=O)Nc1nnc(C2CC2)s1	–	inconclusive: 12.9%
Clc1ccccc1-c1ncc(-c2ccccc2)o1	–	inconclusive: -11.8%
CC(=O)Nc1ccc(S(=O)(=O)Oc2ccccc2N2C(=O)C3C4CCC(C4)C3C2=O)cc1 (configuration not stated)	–	inconclusive: -4.53%
O=C(CNC1CCCCC1)Nc1ccc(Cl)cc1	–	inconclusive: -13.9%
Cc1cccc(C(=O)OCC(=O)Nc2ccc(F)cc2)c1	inconclusive: 20 µM [falling, single point]	–
Cc1nc(NC(=O)CN2CCOCC2)sc1-c1ccccc1	inconclusive: 28.2 µM [falling, single point]	–
COc1ccc(-c2nc(CSCC(=O)NCc3ccc4c(c3)OCO4)c(C)o2)cc1OC	–	inactive

One compound at a time, from the list above:
`Cc1cccc(C)c1NC(=O)CSc1nnc(Cn2nnc(-c3ccccc3)n2)n1-c1ccccc1` is listed with activity change, negative = inhibition: inconclusive: -5.82%
`COc1ccc([N+](=O)[O-])cc1N(CC(O)CN1CCOCC1)S(=O)(=O)c1ccccc1` (configuration not stated) is listed with activity change, negative = inhibition: inconclusive: -8.42%

Next part

SMILES	Potency	activity change, negative = inhibition
O=C(c1cc(F)c(F)c(F)c1F)N1CCN(Cc2ccc3c(c2)OCO3)CC1	–	inactive
Cc1cc(OC(=O)c2cc(Cl)nc3ccccc23)ccc1Cl	–	inconclusive: 19.9%
CCOc1ccc(-c2cc(CCCC(=O)NCCc3ccccc3)no2)cc1	inconclusive: 18.4 µM [falling, single point]	–
COC(=O)C1=CN(Cc2ccc(OC)cc2)C=C(C(=O)OC)C1c1ccsc1	–	inconclusive: -15.7%
CCn1cc(C(=O)NCc2ccco2)c(=O)c2ccc(C)nc21	–	inconclusive: 7.99%
CCCNC(=O)C(Cc1ccccc1)NS(=O)(=O)c1ccc2c(c1)CCC(=O)N2 (configuration not stated)	–	inconclusive: 0.179%
NC(=O)c1nsc(C(=O)N(c2cccc(F)c2)C(C(=O)NCc2ccccc2)c2ccc(O)cc2)c1N (configuration not stated)	–	inconclusive: 19.1%
O=C(NCc1ccc2c(c1)CCN2C(=O)c1ccc(F)cc1)c1cc2ccccc2[nH]1	–	inactive
CCOCCn1c(CN2CCc3ccccc3C2)nc2c1c(=O)n(C)c(=O)n2C	–	inconclusive: -5.18%
C=CCn1c(C)cc(C(=O)Cn2c(C(C)O)nc3ccccc32)c1C (configuration not stated)	–	inactive
O=C(O)CSCC(=O)N1CCc2c([nH]c3ccccc23)C1C(F)(F)F (configuration not stated)	–	inconclusive: -4.94%
CS(=O)(=O)C1=NSC2=NC(=O)/C(=C\c3cccn3-c3ccc(Cl)cc3)C(=N)N21	–	inconclusive: 3.25%
CSc1nc(-c2ccccc2F)c(C#N)c(=O)n1C	inconclusive: 35.5 µM [falling, single point]	–
N[C@H](CSCc1ccccc1)C(=O)Nc1ccc([N+](=O)[O-])cc1	–	inactive
CCCC(=O)Nc1ccc(C(=O)Nc2nc(CC(=O)OCC)cs2)cc1	inconclusive: 29.1 µM [falling, single point]	–
CCOC(=O)N1CCN(S(=O)(=O)c2ccc(OC)c(Cl)c2Cl)CC1	–	inconclusive: -19.5%
COc1ccc(S(=O)(=O)n2oc(=O)cc2-c2ccccc2)cc1	–	inconclusive: 14.6%
O=C(CSc1nc2ccccc2s1)Nc1ccc(C(=O)O)cc1	inconclusive: 31.6 µM [falling, partial curve]	–
O=C(Nc1ccc(Cl)cn1)c1cccc(S(=O)(=O)N2CCCCC2)c1	–	inconclusive: 0.557%
COc1ccc(-c2cc(C(F)(F)F)nc(S(=O)(=O)CCCC(=O)Nc3cccc(O)c3)n2)cc1OC	inconclusive: 5.62 µM [falling, single point]	–
CC(Sc1nn(-c2ccc(F)cc2)c(=S)s1)C(=O)c1c(N)n(C)c(=O)n(C)c1=O (configuration not stated)	–	inconclusive: 3.66%

SMILES	Potency	activity change, negative = inhibition
Cc1cccc(Nc2nc3ccccc3n3nnnc23)c1	–	inconclusive: 8.7%
Cc1cc(C(=O)NCc2ccc3c(c2)OCO3)ccc1[N+](=O)[O-]	–	inactive
COc1ccccc1N1CCN(C(=O)c2oc3c(c2C)C(=O)CC(C)(C)C3)CC1	–	inconclusive: 1.53%
O=C(NCCN1CCOCC1)/C(=C/c1ccco1)NC(=O)c1ccccc1	–	inactive
COc1cc(NC(=O)c2cc(-c3cccs3)on2)cc(OC)c1OC	–	inconclusive: -27.7%
CCOc1ccc(S(=O)(=O)NCCc2sc3nc(-c4ccc(F)cc4)nn3c2C)cc1	–	inconclusive: -1.32%
COCCCn1c(SCC(N)=O)nnc1-c1ccccc1	–	inconclusive: 8.91%
COC(=O)c1cc(=O)n(Cc2cccs2)c(=Nc2ccccc2)s1	–	inconclusive: 10.8%
N#Cc1c(N2CCCCC2)nc(N)c2c(N)nc3c(c12)CC(c1ccccc1)O3 (configuration not stated)	–	inconclusive: 18.3%
CCCC(=O)N1c2ccccc2C(N(C(C)=O)c2ccccc2)CC1C (configuration not stated)	–	inactive
NC(N)=NC(N)=NCCc1ccccc1	–	inconclusive: 2.84%
O=C(N/N=C/c1cccc(O)c1)c1ccccc1O	–	inconclusive: 409%
COc1ccc(CNS(=O)(=O)c2c(C)[nH]c(C)c2C(=O)N2CCCCC2)cc1	inconclusive: 8.91 µM [falling, partial curve, poor fit]	–
CC1=CC(C)(C)NC(=S)N1c1ccc(C)c(C)c1	–	inactive
CSCCNC(=O)c1ccc2nc(C3CCCCC3)oc2c1	–	inconclusive: -5.33%
c1ccc2cc(CCCc3cc4ccccc4cn3)ncc2c1	–	inconclusive: -4.15%
COc1ccccc1N1CCN(Cc2ccsc2)CC1	–	inconclusive: 3.09%
CCc1n[nH]c(=S)n1/N=C/c1ccc(N(CC)CC)cc1	active: 11.2 µM	–
CC1CC(=O)Nc2cc([N+](=O)[O-])ccc2N1 (configuration not stated)	–	inconclusive: 2.95%
c1ccc2nc3c(nc2c1)[nH]c1ccccc13	–	inactive
C=CCN1C(=O)C(=O)N(CC(=O)c2ccc3c(c2)CCCC3)C1=O	–	inconclusive: 7.32%

SMILES	Potency	activity change, negative = inhibition
N#C[C@]1(S(=O)(=O)c2ccccc2)C[C@@H]2ON=C(c3cccc(Br)c3)[C@@H]2C1	inconclusive: 35.5 µM [rising, partial curve, poor fit]	–
O=C(c1cnn2ccccc12)N1CCc2ccccc21	inconclusive: 29.1 µM [falling, single point]	–
N#C/C(=C\c1cn(CCOc2ccccc2)c2ccccc12)C(=O)NCc1cccs1	–	inconclusive: 7.02%
O=C(c1ccc2ncsc2c1)N1CCN(c2ccccc2Cl)CC1	–	inconclusive: -24.8%
Cc1nc(NC(=O)c2ccccc2)sc1Cc1ccc2c(c1)OCO2	–	inconclusive: -0.376%
COc1ccc(Cl)cc1NC(=S)NC(=O)c1ccco1	–	inconclusive: 4.21%
COc1ccc(OC)c(CNc2c(C=O)c(=O)[nH]c3ccccc23)c1	–	inconclusive: -18%
O=C1N=C(N2CCc3ccccc3C2)S/C1=C\c1cccc(O)c1	inconclusive: 20.6 µM [falling, single point]	–
CC(=O)c1ccc(N2CCN(c3ncnc4c3c(-c3ccccc3)cn4-c3cccc(C)c3)CC2)cc1	–	inactive
Cc1ccc2nsnc2c1NC(=O)COc1ccccc1F	–	inconclusive: -2.37%
COc1ccc(OC)c(NC(=O)CCN2CCCC(C)C2)c1 (configuration not stated)	–	inactive
O=C(CCCn1c(=O)c2ccccc2n(Cc2cccc(F)c2)c1=O)NC1CCN(Cc2ccccc2)CC1	–	inconclusive: -28.9%
CCOc1ccc(S(=O)(=O)Nc2cccc(C(=O)NCC3CCCO3)c2)cc1 (configuration not stated)	–	inactive
CN(C)C(=S)Nc1ccc(Br)cc1Cl	inconclusive: 0.112 µM [falling, full curve, poor fit]	–
COc1ccc(C(=O)N=C2SC3CS(=O)(=O)CC3N2c2ccc(N(C)C)cc2)cc1OC (configuration not stated)	–	inactive
CCSc1ccccc1C(=O)N1CCCC1	–	inconclusive: 12.1%
O=C1Nc2ccccc2C1=Nc1ccc(S(=O)(=O)Nc2nccs2)cc1	inconclusive: 35.5 µM [falling, single point]	–
Cc1cccc(OCCCC(=O)Nc2nc3ccccc3[nH]2)c1	inconclusive: 12.6 µM [rising, partial curve, poor fit]	–
CCOC(=O)O[C@]1(C(=O)COC(=O)CC)CC[C@H]2[C@@H]3CCC4=CC(=O)C=C[C@]4(C)[C@H]3[C@@H](O)C[C@@]21C	–	inconclusive: -18.2%

Among those listed so far, 12 contain fluorine:
SMILES	Potency	activity change, negative = inhibition
Cc1onc(-c2c(F)cccc2Cl)c1C(=O)Nc1nnc(C2CC2)s1	–	inconclusive: 12.9%
Cc1cccc(C(=O)OCC(=O)Nc2ccc(F)cc2)c1	inconclusive: 20 µM [falling, single point]	–
O=C(c1cc(F)c(F)c(F)c1F)N1CCN(Cc2ccc3c(c2)OCO3)CC1	–	inactive
NC(=O)c1nsc(C(=O)N(c2cccc(F)c2)C(C(=O)NCc2ccccc2)c2ccc(O)cc2)c1N (configuration not stated)	–	inconclusive: 19.1%
O=C(NCc1ccc2c(c1)CCN2C(=O)c1ccc(F)cc1)c1cc2ccccc2[nH]1	–	inactive
O=C(O)CSCC(=O)N1CCc2c([nH]c3ccccc23)C1C(F)(F)F (configuration not stated)	–	inconclusive: -4.94%
CSc1nc(-c2ccccc2F)c(C#N)c(=O)n1C	inconclusive: 35.5 µM [falling, single point]	–
COc1ccc(-c2cc(C(F)(F)F)nc(S(=O)(=O)CCCC(=O)Nc3cccc(O)c3)n2)cc1OC	inconclusive: 5.62 µM [falling, single point]	–
CC(Sc1nn(-c2ccc(F)cc2)c(=S)s1)C(=O)c1c(N)n(C)c(=O)n(C)c1=O (configuration not stated)	–	inconclusive: 3.66%
CCOc1ccc(S(=O)(=O)NCCc2sc3nc(-c4ccc(F)cc4)nn3c2C)cc1	–	inconclusive: -1.32%
Cc1ccc2nsnc2c1NC(=O)COc1ccccc1F	–	inconclusive: -2.37%
O=C(CCCn1c(=O)c2ccccc2n(Cc2cccc(F)c2)c1=O)NC1CCN(Cc2ccccc2)CC1	–	inconclusive: -28.9%
